Laboratory results from PubChem BioAssay AID296 (DTP/NCI, 2004).
The list shows only some results of the screen, not a fair sample: it gathers tests that were run many times, whatever their T/C, doses with no T/C, and many T/C values between a quarter and a half above the control. Other doses and runs of a compound stand elsewhere. T/C gives the treated animals as a percentage of the vehicle group. Schedule codes are those of the source, read here as Q, the interval in days (D) or hours (H), X, the number of doses. Some doses have a count of surviving animals in place of a T/C: the source files T/C as zero there, which appears to mark a toxic dose or a test without result, not a measured value. Counts of survivors are from the toxicity check (mostly the fifth day) where no day follows; animals may have died later.

Tested on: MX-1 breast xenograft, nude mice, tumor weight T/C
Assay: NCI In Vivo Anticancer Drug Screen. Data for tumor model Human Mammary Carcinoma MX-1 Xenograft (intrarenal inoculation) in NU/NU Swiss (nude) mice
Settings: T/C endpoint: mean tumor weight change, higher T/C = larger tumour; for T/C: evaluated on day 11
How it was run: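 Read-out: treated (T) over vehicle control (C) ratio of survival or tumor size. Dosing in animals carrying the transplanted tumor.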

## CCN(Cc1ccc(Cl)c(Cl)c1)c1ccc2nc(N)nc(N)c2c1C
dose: 37.5 mg/kg/injection, schedule: Q04DX003 (sc), vehicle: distilled water + Tween-80
  survivor count: 3 of 6 on day 11
dose: 75.0 mg/kg/injection, schedule: Q04DX003 (sc), vehicle: distilled water + Tween-80
  survivor count: 0 of 6 on day 11

## COc1cc2cc3c4cc(OC)c(OC)cc4cc[n+]3c(C)c2cc1OC (tested in a mixture with another compound)
dose: 300.0 mg/kg/injection, schedule: Q04DX003 (sc), vehicle: saline
  survivor count: 3 of 6 on day 11
dose: 600.0 mg/kg/injection, schedule: Q04DX003 (sc), vehicle: saline
  survivor count: 0 of 6 on day 11

## NC(=O)c1ncn2c(=O)n(CCCl)nnc12
dose: 100.0 mg/kg/injection, schedule: Q04DX003 (sc), vehicle: suspension in saline
  survivor count: 2 of 6 on day 11
dose: 200.0 mg/kg/injection, schedule: Q04DX003 (sc), vehicle: suspension in saline
  survivor count: 0 of 6 on day 11

## CC1(c2ccc(Cl)cc2)OC(=O)C(=Cc2ccc([N+](=O)[O-])s2)C(=O)O1 (stereo not given)
dose: 2400.0 mg/kg/injection, schedule: Q04DX003 (sc), vehicle: saline with Tween-80
  survivor count: 2 of 6 on day 11

## OCC1(CO)COC2(CCCCC2)N1
dose: 100.0 mg/kg/injection, schedule: Q01DX010 (sc), vehicle: saline
  T/C: 128 % of control
dose: 400.0 mg/kg/injection, schedule: Q01DX010 (sc), vehicle: saline
  survivor count: 0 of 2 on day 11

## CC1=C(C)C(=O)O[C@@H]([C@](C)(O)[C@]2(O)CC[C@@]3(O)[C@@H]4C[C@H]5O[C@]56[C@@H](O)C=CC(=O)[C@]6(C)[C@H]4CC[C@]23C)C1
dose: 8.0 mg/kg/injection, schedule: Q01DX010 (sc), vehicle: saline
  T/C: 145 % of control

## CCc1ccc(C2=C(O)C(=O)C(c3ccccc3)=C(O)C2=O)cc1
dose: 75.0 mg/kg/injection, schedule: Q04DX003 (sc), vehicle: Klucel (hydroxypropylcellulose) (HPC)
  T/C: 126 % of control

## CO[C@H]1C[C@](C)(O)Cc2cc3c(c(O)c21)C(=O)c1c(O)cc2c(c1C3=O)O[C@@H]1O[C@@]2(C)[C@H](O)[C@@H](N(C)C)[C@@H]1O
dose: 25.0 mg/kg/injection, schedule: Q01DX010 (sc), vehicle: other
  survivor count: 0 of 3 on day 11

## O=C(NP(=O)(N1CC1)N1CC1)c1cc(I)ccc1I
dose: 75.0 mg/kg/injection, schedule: Q04DX003 (sc), vehicle: suspension in saline
  survivor count: 3 of 6 on day 11
dose: 150.0 mg/kg/injection, schedule: Q04DX003 (sc), vehicle: suspension in saline
  survivor count: 2 of 5 on day 11
dose: 600.0 mg/kg/injection, schedule: Q04DX003 (sc), vehicle: suspension in saline
  survivor count: 0 of 6 on day 11

## CC1(O)C=CC(=O)C=C1
dose: 100.0 mg/kg/injection, schedule: Q04DX003 (ip), vehicle: water
  survivor count: 0 of 6 on day 11
dose: 200.0 mg/kg/injection, schedule: Q04DX003 (ip), vehicle: water
  survivor count: 0 of 6 on day 11

## NC(=O)c1cn(C2OC(CO)C(O)C2O)c2ncnc(N)c12 (stereo not given)
dose: 12.0 mg/kg/injection, schedule: Q04DX003 (sc), vehicle: saline
  survivor count: 1 of 6 on day 11

## COC(=O)C[C@](O)(CCC(C)(C)O)C(=O)O[C@@H]1C(OC)=C[C@]23CCCN2CCc2cc4c(cc2[C@H]13)OCO4
dose: 2.5 mg/kg/injection, schedule: Q04DX003 (sc), vehicle: saline
  survivor count: 3 of 6 on day 11
dose: 5.0 mg/kg/injection, schedule: Q04DX003 (sc), vehicle: saline
  survivor count: 1 of 5 on day 11
dose: 10.0 mg/kg/injection, schedule: Q04DX003 (sc), vehicle: saline
  survivor count: 0 of 6 on day 11
dose: 20.0 mg/kg/injection, schedule: Q04DX003 (sc), vehicle: saline
  survivor count: 0 of 6 on day 11

## O=c1[nH]c(=O)n(C2CC(O)C(CO)O2)cc1I (stereo not given)
dose: 800.0 mg/kg/injection, schedule: Q01DX010 (sc), vehicle: saline with Tween-80
  survivor count: 0 of 3 on day 11

## CS(=O)(=O)OCCN(CCOS(C)(=O)=O)c1ccc(C=Nc2ccc(-c3csc(COc4ccccc4)n3)cc2)cc1
dose: 400.0 mg/kg/injection, schedule: Q01DX010 (sc), vehicle: Klucel (hydroxypropylcellulose) (HPC)
  survivor count: 0 of 2 on day 11

## CC(=O)OC1=NC(C)c2c1cc(OC(C)=O)[nH]c2=O (stereo not given)
dose: 2400.0 mg/kg/injection, schedule: Q04DX003 (sc), vehicle: Klucel (hydroxypropylcellulose) (HPC)
  survivor count: 1 of 6 on day 11
